# No constants are given. Whether binding was seen depends on the method and setting. Binding seen in cells or lysates may run through a third protein. These calls come from enrichment with a bait or labelling near it, and not all partners need be listed.
# Chains of the proteins cited; added tags and fusions are not shown.
# UniProt Q9Y5X4: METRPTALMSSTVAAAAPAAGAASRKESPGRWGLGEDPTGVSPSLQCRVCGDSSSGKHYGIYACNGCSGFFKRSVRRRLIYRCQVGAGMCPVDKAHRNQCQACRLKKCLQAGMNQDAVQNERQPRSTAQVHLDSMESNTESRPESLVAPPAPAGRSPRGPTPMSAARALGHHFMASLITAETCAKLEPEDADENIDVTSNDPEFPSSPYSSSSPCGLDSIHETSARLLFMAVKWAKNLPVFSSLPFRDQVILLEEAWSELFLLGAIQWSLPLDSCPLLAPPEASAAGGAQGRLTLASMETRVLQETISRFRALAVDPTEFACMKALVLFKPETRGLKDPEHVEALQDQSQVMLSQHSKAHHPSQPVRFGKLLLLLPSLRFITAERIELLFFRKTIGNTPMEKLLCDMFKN
# What was measured:
# [1] = biological target: NR2E3-MUTT2A-TurboID (human), Q9Y5X4; test: proximity labelling; details: remark: other sources report otherwise
# [2] = biological target: NR2E3-MUTT2A-TurboID (human) (UniProt Q9Y5X4); test: proximity labelling
Binder,binding [1],binding [2]
"JUN, P05412 1-331 (protein) MTAKMETTFYDDALNASFLPSESGPYGYSNPKILKQSMTLNLADPVGSLKPHLRAKNSDLLTSPDVGLLKLASPELERLIIQSSNGHITTTPTPTQFLCPKNVTDEQEGFAEGFVRALAELHSQNTLPSVTSAAQPVNGAGMVAPAVASVAGGSGSGGFSASLHSEPPVYANLSNFNPGALSSGGGAPSYGAAGLAFPAQPQQQQQPPHHLPQQMPVQHPRLQALKEEPQTVPEMPGETPPLSPIDMESQERIKAERKRMRNRIAASKCRKRKLERIARLEEKVKTLKAQNSELASTANMLREQVAQLKQKVMNHVNSGCQLMLTQQLQTF",binds,
"JUNB (protein, UniProt P17275 1-347) MCTKMEQPFYHDDSYTATGYGRAPGGLSLHDYKLLKPSLAVNLADPYRSLKAPGARGPGPEGGGGGSYFSGQGSDTGASLKLASSELERLIVPNSNGVITTTPTPPGQYFYPRGGGSGGGAGGAGGGVTEEQEGFADGFVKALDDLHKMNHVTPPNVSLGATGGPPAGPGGVYAGPEPPPVYTNLSSYSPASASSGGAGAAVGTGSSYPTTTISYLPHAPPFAGGHPAQLGLGRGASTFKEEPQTVPEARSRDATPPVSPINMEDQERIKVERKRLRNRLAATKCRKRKLERIARLEDKVKTLKAENAGLSSTAGLLREQVAQLKQKVMTHVSNGCQLLLGVKGHAF",,binds
"JUND (protein, UniProt P17535 1-347) METPFYGDEALSGLGGGASGSGGSFASPGRLFPGAPPTAAAGSMMKKDALTLSLSEQVAAALKPAAAPPPTPLRADGAPSAAPPDGLLASPDLGLLKLASPELERLIIQSNGLVTTTPTSSQFLYPKVAASEEQEFAEGFVKALEDLHKQNQLGAGAAAAAAAAAAGGPSGTATGSAPPGELAPAAAAPEAPVYANLSSYAGGAGGAGGAATVAFAAEPVPFPPPPPPGALGPPRLAALKDEPQTVPDVPSFGESPPLSPIDMDTQERIKAERKRLRNRIAASKCRKRKLERISRLEEKVKTLKSQNTELASTASLLREQVAQLKQKVLSHVNSGCQLLPQHQVPAY",,binds
"FOSL1 (protein, UniProt P15407 1-271) MFRDFGEPGPSSGNGGGYGGPAQPPAAAQAAQQKFHLVPSINTMSGSQELQWMVQPHFLGPSSYPRPLTYPQYSPPQPRPGVIRALGPPPGVRRRPCEQISPEEEERRRVRRERNKLAAAKCRNRRKELTDFLQAETDKLEDEKSGLQREIEELQKQKERLELVLEAHRPICKIPEGAKEGDTGSTSGTSSPPAPCRPVPCISLSPGPVLEPEALHTPTLMTTPSLTPFTPSLVFTYPSTPEPCASAHRKSSSSSGDPSSDPLGSPTLLAL",,binds
"FOSL2 (protein, UniProt P15408 1-326) MYQDYPGNFDTSSRGSSGSPAHAESYSSGGGGQQKFRVDMPGSGSAFIPTINAITTSQDLQWMVQPTVITSMSNPYPRSHPYSPLPGLASVPGHMALPRPGVIKTIGTTVGRRRRDEQLSPEEEEKRRIRRERNKLAAAKCRNRRRELTEKLQAETEELEEEKSGLQKEIAELQKEKEKLEFMLVAHGPVCKISPEERRSPPAPGLQPMRSGGGSVGAVVVKQEPLEEDSPSSSSAGLDKAQRSVIKPISIAGGFYGEEPLHTPIVVTSTPAVTPGTSNLVFTYPSVLEQESPASPSESCSKAHRRSSSSGDQSSDSLNSPTLLAL",,binds
"CPSF1 (protein, UniProt Q10570 1-1443) MYAVYKQAHPPTGLEFSMYCNFFNNSERNLVVAGTSQLYVYRLNRDAEALTKNDRSTEGKAHREKLELAASFSFFGNVMSMASVQLAGAKRDALLLSFKDAKLSVVEYDPGTHDLKTLSLHYFEEPELRDGFVQNVHTPRVRVDPDGRCAAMLVYGTRLVVLPFRRESLAEEHEGLVGEGQRSSFLPSYIIDVRALDEKLLNIIDLQFLHGYYEPTLLILFEPNQTWPGRVAVRQDTCSIVAISLNITQKVHPVIWSLTSLPFDCTQALAVPKPIGGVVVFAVNSLLYLNQSVPPYGVALNSLTTGTTAFPLRTQEGVRITLDCAQATFISYDKMVISLKGGEIYVLTLITDGMRSVRAFHFDKAAASVLTTSMVTMEPGYLFLGSRLGNSLLLKYTEKLQEPPASAVREAADKEEPPSKKKRVDATAGWSAAGKSVPQDEVDEIEVYGSEAQSGTQLATYSFEVCDSILNIGPCANAAVGEPAFLSEEFQNSPEPDLEIVVCSGHGKNGALSVLQKSIRPQVVTTFELPGCYDMWTVIAPVRKEEEDNPKGEGTEQEPSTTPEADDDGRRHGFLILSREDSTMILQTGQEIMELDTSGFATQGPTVFAGNIGDNRYIVQVSPLGIRLLEGVNQLHFIPVDLGAPIVQCAVADPYVVIMSAEGHVTMFLLKSDSYGGRHHRLALHKPPLHHQSKVITLCLYRDLSGMFTTESRLGGARDELGGRSGPEAEGLGSETSPTVDDEEEMLYGDSGSLFSPSKEEARRSSQPPADRDPAPFRAEPTHWCLLVRENGTMEIYQLPDWRLVFLVKNFPVGQRVLVDSSFGQPTTQGEARREEATRQGELPLVKEVLLVALGSRQSRPYLLVHVDQELLIYEAFPHDSQLGQGNLKVRFKKVPHNINFREKKPKPSKKKAEGGGAEEGAGARGRVARFRYFEDIYGYSGVFICGPSPHWLLVTGRGALRLHPMAIDGPVDSFAPFHNVNCPRGFLYFNRQGELRISVLPAYLSYDAPWPVRKIPLRCTAHYVAYHVESKVYAVATSTNTPCARIPRMTGEEKEFETIERDERYIHPQQEAFSIQLISPVSWEAIPNARIELQEWEHVTCMKTVSLRSEETVSGLKGYVAAGTCLMQGEEVTCRGRILIMDVIEVVPEPGQPLTKNKFKVLYEKEQKGPVTALCHCNGHLVSAIGQKIFLWSLRASELTGMAFIDTQLYIHQMISVKNFILAADVMKSISLLRYQEESKTLSLVSRDAKPLEVYSVDFMVDNAQLGFLVSDRDRNLMVYMYLPEAKESFGGMRLLRRADFHVGAHVNTFWRTPCRGATEGLSKKSVVWENKHITWFATLDGGIGLLLPMQEKTYRRLLMLQNALTTMLPHHAGLNPRAFRMLHVDRRTLQNAVRNVLDGELLNRYLYLSTMERSELAKKIGTTPDIILDDLLETDRVTAHF",,binds
"CPSF2 (protein, UniProt Q9P2I0 1-782) MTSIIKLTTLSGVQEESALCYLLQVDEFRFLLDCGWDEHFSMDIIDSLRKHVHQIDAVLLSHPDPLHLGALPYAVGKLGLNCAIYATIPVYKMGQMFMYDLYQSRHNTEDFTLFTLDDVDAAFDKIQQLKFSQIVNLKGKGHGLSITPLPAGHMIGGTIWKIVKDGEEEIVYAVDFNHKREIHLNGCSLEMLSRPSLLITDSFNATYVQPRRKQRDEQLLTNVLETLRGDGNVLIAVDTAGRVLELAQLLDQIWRTKDAGLGVYSLALLNNVSYNVVEFSKSQVEWMSDKLMRCFEDKRNNPFQFRHLSLCHGLSDLARVPSPKVVLASQPDLECGFSRDLFIQWCQDPKNSIILTYRTTPGTLARFLIDNPSEKITEIELRKRVKLEGKELEEYLEKEKLKKEAAKKLEQSKEADIDSSDESDIEEDIDQPSAHKTKHDLMMKGEGSRKGSFFKQAKKSYPMFPAPEERIKWDEYGEIIKPEDFLVPELQATEEEKSKLESGLTNGDEPMDQDLSDVPTKCISTTESIEIKARVTYIDYEGRSDGDSIKKIINQMKPRQLIIVHGPPEASQDLAECCRAFGGKDIKVYMPKLHETVDATSETHIYQVRLKDSLVSSLQFCKAKDAELAWIDGVLDMRVSKVDTGVILEEGELKDDGEDSEMQVEAPSDSSVIAQQKAMKSLFGDDEKETGEESEIIPTLEPLPPHEVPGHQSVFMNEPRLSDFKQVLLREGIQAEFVGGVLVCNNQVAVRRTETGRIGLEGCLCQDFYRIRDLLYEQYAIV",,binds
"CPSF3 (protein, UniProt Q9UKF6 1-684) MSAIPAEESDQLLIRPLGAGQEVGRSCIILEFKGRKIMLDCGIHPGLEGMDALPYIDLIDPAEIDLLLISHFHLDHCGALPWFLQKTSFKGRTFMTHATKAIYRWLLSDYVKVSNISADDMLYTETDLEESMDKIETINFHEVKEVAGIKFWCYHAGHVLGAAMFMIEIAGVKLLYTGDFSRQEDRHLMAAEIPNIKPDILIIESTYGTHIHEKREEREARFCNTVHDIVNRGGRGLIPVFALGRAQELLLILDEYWQNHPELHDIPIYYASSLAKKCMAVYQTYVNAMNDKIRKQININNPFVFKHISNLKSMDHFDDIGPSVVMASPGMMQSGLSRELFESWCTDKRNGVIIAGYCVEGTLAKHIMSEPEEITTMSGQKLPLKMSVDYISFSAHTDYQQTSEFIRALKPPHVILVHGEQNEMARLKAALIREYEDNDEVHIEVHNPRNTEAVTLNFRGEKLAKVMGFLADKKPEQGQRVSGILVKRNFNYHILSPCDLSNYTDLAMSTVKQTQAIPYTGPFNLLCYQLQKLTGDVEELEIQEKPALKVFKNITVIQEPGMVVLEWLANPSNDMYADTVTTVILEVQSNPKIRKGAVQKVSKKLEMHVYSKRLEIMLQDIFGEDCVSVKDDSILSVTVDGKTANLNLETRTVECEEGSEDDESLREMVELAAQRLYEALTPVH",,binds
"FIP1L (protein, UniProt Q6UN15 1-594) MSAGEVERLVSELSGGTGGDEEEEWLYGGPWDVHVHSDLAKDLDENEVERPEEENASANPPSGIEDETAENGVPKPKVTETEDDSDSDSDDDEDDVHVTIGDIKTGAPQYGSYGTAPVNLNIKTGGRVYGTTGTKVKGVDLDAPGSINGVPLLEVDLDSFEDKPWRKPGADLSDYFNYGFNEDTWKAYCEKQKRIRMGLEVIPVTSTTNKITAEDCTMEVTPGAEIQDGRFNLFKVQQGRTGNSEKETALPSTKAEFTSPPSLFKTGLPPSRNSTSSQSQTSTASRKANSSVGKWQDRYGRAESPDLRRLPGAIDVIGQTITISRVEGRRRANENSNIQVLSERSATEVDNNFSKPPPFFPPGAPPTHLPPPPFLPPPPTVSTAPPLIPPPGFPPPPGAPPPSLIPTIESGHSSGYDSRSARAFPYGNVAFPHLPGSAPSWPSLVDTSKQWDYYARREKDRDRERDRDRERDRDRDRERERTRERERERDHSPTPSVFNSDEERYRYREYAERGYERHRASREKEERHRERRHREKEETRHKSSRSNSRRRHESEEGDSHRRHKHKKSKRSKEGKEAGSEPAPEQESTEATPAE",,binds

# Source: paper doi:10.1101/2025.09.04.674188
